# Results published in patent US20260256792A1, “TREATMENT OF CHRONIC SPONTANEOUS URTICARIA BY ADMINISTERING (R)-2-[3-[4-AMINO-3-(2-FLUORO-4-PHENOXY-PHENYL)PYRAZOLO[3,4-D]PYRIMIDIN-1-YL]PIPERIDINE-1-CARBONYL]-4-METHYL-4-[4-(OXETAN-3-YL)PIPERAZIN-1-YL]PENT-2-ENENITRILE” (priority 2023, published 2026).
# The source gives many values for each of these; only a part stands here.
# Tested on: moderate-to-severe chronic spontaneous urticaria (CSU)
# Experiment: Phase 2 CSU study: itch severity score over 7 days (ISS7)
# Format: in vivo, human
# Conditions: Omalizumab-Naïve
# Description: The study comprises a 12 week, randomized, double-blind, placebo-controlled, multi-center, dose-ranging efficacy and safety phase, followed by a 40 week open label extension (OLE) phase (see FIG. 1). The study consists of three phases and an optional OLE phase. […] Clinically, CSU is characterized by the spontaneous and recurrent appearance of pruritic hives. The proposed primary endpoints were the UAS7 at Week 12 in EU and EU reference countries and the ISS7 in the US. Regardless of where a participant was from, all assessments were the same. The UAS7 score is a composite score containing both the HSS7 and the ISS7. This allowed a global assessment of the two key components of urticaria: hives and itch. […] The UAS is a validated PRO measure. […] The daily UAS scores range from 0 to 6 point/day. […] Patients were to complete the UAS using the e-diary. […] The following secondary endpoints were to be analyzed using the same approach as for the primary endpoint: • Change from baseline in UAS7 at Week 4 • Change from baseline in UAS7 at Week 12 (for US and US reference countries) • Change from baseline in ISS7 at Week 12 (except US and US reference countries) • Change from baseline in HSS7 at Week 12
smiles,measurement,setting,value
"CC(C)(C=C(C#N)C(=O)N1CCC[C@@H](n2nc(-c3ccc(Oc4ccccc4)cc3F)c3c(N)ncnc32)C1)N1CCN(C2COC2)CC1 [rilzabrutinib, (R)-2-[3-[4-amino-3-(2-fluoro-4-phenoxy-phenyl)pyrazolo[3,4-d]pyrimidin-1-yl]piperidine-1-carbonyl]-4-methyl-4-[4-(oxetan-3-yl)piperazin-1-yl]pent-2-enenitrile]",ISS7 Change difference for rilzabrutinib vs. placebo LS Mean (95% CI),"400 mg BID, Week 6",−1.76
same,ISS7 Change from baseline LS Mean (SE),"400 mg BID, Week 6",−6.57 (0.97)
same,ISS7 % Change difference for rilzabrutinib vs. placebo LS Mean (95% CI),"400 mg BID, Week 7","−17.04 (−33.33, −0.75) %"
same,ISS7 % Change from baseline LS Mean (SE),"400 mg BID, Week 7",−46.77 (6.08) %
same,ISS7 Change difference for rilzabrutinib vs. placebo LS Mean (95% CI),"400 mg BID, Week 7",−2.36
same,ISS7 Change from baseline LS Mean (SE),"400 mg BID, Week 7",−7.47 (0.94)
same,ISS7 % Change difference for rilzabrutinib vs. placebo LS Mean (95% CI),"400 mg BID, Week 8","−20.68 (−37.61, −3.74) %"
same,ISS7 % Change from baseline LS Mean (SE),"400 mg BID, Week 8",−52.58 (6.34) %
same,ISS7 Change difference for rilzabrutinib vs. placebo LS Mean (95% CI),"400 mg BID, Week 8",−2.79
same,ISS7 Change from baseline LS Mean (SE),"400 mg BID, Week 8",−8.20 (0.98)
same,ISS7 % Change difference for rilzabrutinib vs. placebo LS Mean (95% CI),"400 mg BID, Week 9","−22.21 (−38.97, −5.44) %"
same,ISS7 % Change from baseline LS Mean (SE),"400 mg BID, Week 9",−51.70 (6.32) %
same,ISS7 Change difference for rilzabrutinib vs. placebo LS Mean (95% CI),"400 mg BID, Week 9",−2.94
same,ISS7 Change from baseline LS Mean (SE),"400 mg BID, Week 9",−7.96 (0.99)
same,ISS7 % Change difference for rilzabrutinib vs. placebo LS Mean (95% CI),"400 mg BID, Week 10","−13.81 (−31.52, 3.91) %"
same,ISS7 % Change from baseline LS Mean (SE),"400 mg BID, Week 10",−48.38 (6.69) %
same,ISS7 Change difference for rilzabrutinib vs. placebo LS Mean (95% CI),"400 mg BID, Week 10",−2.09
same,ISS7 % Change difference for rilzabrutinib vs. placebo LS Mean (95% CI),"400 mg BID, Week 11","−17.86 (−35.62, −0.09) %"
same,ISS7 % Change from baseline LS Mean (SE),"400 mg BID, Week 11",−49.16 (6.63) %
same,ISS7 Change difference for rilzabrutinib vs. placebo LS Mean (95% CI),"400 mg BID, Week 11",−2.43
same,ISS7 Change from baseline LS Mean (SE),"400 mg BID, Week 11",−7.75 (1.02)
same,ISS7 % Change difference for rilzabrutinib vs. placebo LS Mean (95% CI),"400 mg QPM, Week 5","2.23 (−13.08, 17.55) %"
same,ISS7 % Change from baseline LS Mean (SE),"400 mg QPM, Week 5",−31.89 (5.56) %
same,ISS7 Change difference for rilzabrutinib vs. placebo LS Mean (95% CI),"400 mg QPM, Week 5",0.33
same,ISS7 Change from baseline LS Mean (SE),"400 mg QPM, Week 5",−5.30 (0.88)
same,ISS7 % Change difference for rilzabrutinib vs. placebo LS Mean (95% CI),"400 mg QPM, Week 6","−8.63 (−25.16, 7.90) %"
same,ISS7 % Change from baseline LS Mean (SE),"400 mg QPM, Week 6",−36.29 (6.07) %
same,ISS7 Change difference for rilzabrutinib vs. placebo LS Mean (95% CI),"400 mg QPM, Week 6",−1.21
same,ISS7 Change from baseline LS Mean (SE),"400 mg QPM, Week 6",−6.02 (0.95)
same,ISS7 % Change difference for rilzabrutinib vs. placebo LS Mean (95% CI),"400 mg QPM, Week 7","−8.51 (−24.78, 7.77) %"
same,ISS7 % Change from baseline LS Mean (SE),"400 mg QPM, Week 7",−38.23 (5.98) %
same,ISS7 Change difference for rilzabrutinib vs. placebo LS Mean (95% CI),"400 mg QPM, Week 7",−1.06
same,ISS7 Change from baseline LS Mean (SE),"400 mg QPM, Week 7",−6.16 (0.93)
same,ISS7 % Change difference for rilzabrutinib vs. placebo LS Mean (95% CI),"400 mg QPM, Week 8","−5.64 (−22.51, 11.23) %"
same,ISS7 % Change from baseline LS Mean (SE),"400 mg QPM, Week 8",−37.54 (6.29) %
same,ISS7 Change difference for rilzabrutinib vs. placebo LS Mean (95% CI),"400 mg QPM, Week 8",−0.55
same,ISS7 Change from baseline LS Mean (SE),"400 mg QPM, Week 8",−5.96 (0.96)
same,ISS7 % Change from baseline LS Mean (SE),"400 mg QPM, Week 9",−37.27 (6.13) %
same,ISS7 Change difference for rilzabrutinib vs. placebo LS Mean (95% CI),"400 mg QPM, Week 9",−1.08
same,ISS7 Change from baseline LS Mean (SE),"400 mg QPM, Week 9",−6.10 (0.96)
same,ISS7 % Change difference for rilzabrutinib vs. placebo LS Mean (95% CI),"400 mg QPM, Week 10","−4.17 (−21.94, 13.59) %"
same,ISS7 % Change from baseline LS Mean (SE),"400 mg QPM, Week 10",−38.74 (6.43) %
same,ISS7 Change difference for rilzabrutinib vs. placebo LS Mean (95% CI),"400 mg QPM, Week 10",−0.58
same,ISS7 Change from baseline LS Mean (SE),"400 mg QPM, Week 10",−6.26 (1.01)
same,ISS7 % Change difference for rilzabrutinib vs. placebo LS Mean (95% CI),"400 mg QPM, Week 11","−4.87 (−22.51, 12.77) %"
same,ISS7 % Change from baseline LS Mean (SE),"400 mg QPM, Week 11",−36.17 (6.53) %
same,ISS7 Change difference for rilzabrutinib vs. placebo LS Mean (95% CI),"400 mg QPM, Week 11",−0.42
same,ISS7 Change from baseline LS Mean (SE),"400 mg QPM, Week 11",−5.73 (1.00)
same,ISS7 % Change difference for rilzabrutinib vs. placebo LS Mean (95% CI),"400 mg TID, Week 5","−19.52 (−35.10, −3.93) %"
same,ISS7 % Change from baseline LS Mean (SE),"400 mg TID, Week 5",−53.64 (5.75) %
same,ISS7 Change difference for rilzabrutinib vs. placebo LS Mean (95% CI),"400 mg TID, Week 5",−2.88
same,ISS7 Change from baseline LS Mean (SE),"400 mg TID, Week 5",−8.51 (0.91)
same,ISS7 % Change difference for rilzabrutinib vs. placebo LS Mean (95% CI),"400 mg TID, Week 6","−24.70 (−41.62, −7.79) %"
same,ISS7 % Change from baseline LS Mean (SE),"400 mg TID, Week 6",−52.36 (6.28) %
same,ISS7 Change difference for rilzabrutinib vs. placebo LS Mean (95% CI),"400 mg TID, Week 6",−3.47
same,ISS7 Change from baseline LS Mean (SE),"400 mg TID, Week 6",−8.27 (0.99)
same,ISS7 % Change difference for rilzabrutinib vs. placebo LS Mean (95% CI),"400 mg TID, Week 7","−24.69 (−41.39, −7.99) %"
same,ISS7 % Change from baseline LS Mean (SE),"400 mg TID, Week 7",−54.42 (6.29) %
same,ISS7 Change difference for rilzabrutinib vs. placebo LS Mean (95% CI),"400 mg TID, Week 7",−3.43
same,ISS7 Change from baseline LS Mean (SE),"400 mg TID, Week 7",−8.54 (0.97)
same,ISS7 % Change difference for rilzabrutinib vs. placebo LS Mean (95% CI),"400 mg TID, Week 8","−19.18 (−36.57, −1.80) %"
same,ISS7 % Change from baseline LS Mean (SE),"400 mg TID, Week 8",−51.09 (6.57) %
same,ISS7 Change difference for rilzabrutinib vs. placebo LS Mean (95% CI),"400 mg TID, Week 8",−2.52
same,ISS7 Change from baseline LS Mean (SE),"400 mg TID, Week 8",−7.93 (1.03)
same,ISS7 % Change difference for rilzabrutinib vs. placebo LS Mean (95% CI),"400 mg TID, Week 9","−24.44 (−41.44, −7.44) %"
same,ISS7 % Change from baseline LS Mean (SE),"400 mg TID, Week 9",−53.94 (6.32) %
same,ISS7 Change difference for rilzabrutinib vs. placebo LS Mean (95% CI),"400 mg TID, Week 9",−3.43
same,ISS7 Change from baseline LS Mean (SE),"400 mg TID, Week 9",−8.45 (1.00)
same,ISS7 % Change difference for rilzabrutinib vs. placebo LS Mean (95% CI),"400 mg TID, Week 10","−20.32 (−38.47, −2.16) %"
same,ISS7 % Change from baseline LS Mean (SE),"400 mg TID, Week 10",−54.88 (6.72) %
same,ISS7 Change difference for rilzabrutinib vs. placebo LS Mean (95% CI),"400 mg TID, Week 10",−2.91
same,ISS7 Change from baseline LS Mean (SE),"400 mg TID, Week 10",−8.59 (1.03)
same,ISS7 % Change difference for rilzabrutinib vs. placebo LS Mean (95% CI),"400 mg TID, Week 11","−22.62 (−40.61, −4.64) %"
same,ISS7 % Change from baseline LS Mean (SE),"400 mg TID, Week 11",−53.92 (6.66) %
same,ISS7 Change difference for rilzabrutinib vs. placebo LS Mean (95% CI),"400 mg TID, Week 11",−3.19
same,ISS7 Change from baseline LS Mean (SE),"400 mg TID, Week 11",−8.50 (1.02)
same,ISS7 % Change difference for rilzabrutinib vs. placebo LS Mean (95% CI),"400 mg TID, Week 12","−23.84 (−41.97, −5.71) %"
same,ISS7 % Change from baseline LS Mean (SE),"400 mg TID, Week 12",−58.05 (6.73) %
same,ISS7 Change difference for rilzabrutinib vs. placebo LS Mean (95% CI),"400 mg TID, Week 12",−3.44
